Measured values taken from PubChem BioAssay AID493014 (National Center for Advancing Translational Sciences (NCATS), 2011).
Some of the results follow. The main result of the screen is listed elsewhere. These columns were measured beside it and carry no call. The list favours compounds with an active or inconclusive main result. Potencies come from curve fits of mixed quality, noted in brackets.

Experiment: qHTS Assay to Find Inhibitors of Chronic Active B-Cell Receptor Signaling
Conditions: ABC-DLBCL IkBa-CBG/CBR reporter, luminescence ratio (green luciferase fused to IkBa over red control in TMD8 lymphoma cells), 4 h
How it was run: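 Compounds up to 46 uM were incubated four hours with TMD8 cells whose green CBG68 luciferase is fused to IkappaBalpha; red CBR luminescence normalised the signal, and concentration-effect curves were fitted to fusion, red and ratio data.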

[1] = measured here: CBR red luminescence, cell number
[2] = measured here: IkBa-CBG green luminescence

CCCCc1ccc(NC(=O)COc2cccc3c(=O)n(C)ccc23)cc1
AC50 [1]: 8.91 µM [rising, partial curve, poor fit]

O=C(CCC(=O)Nc1ccc(F)cc1)N/N=C/c1ccc(O)cc1O
AC50 [1]: 3.98 µM [falling, full curve]

COc1cccc(NC(=O)CCC(=O)N2CC(C)Oc3ccc(C)cc32)c1 (stereo not drawn)
AC50 [1]: 6.31 µM [falling, full curve, poor fit]

COC(=O)c1cc2sc(Cl)cc2n1CC(=O)NCCC(C)C
AC50 [1]: 20.6 µM [rising, partial curve, poor fit]

CCOC(=O)Cn1cnc2c(nnn2-c2cccc(Cl)c2)c1=O
AC50 [1]: 11.2 µM [rising, partial curve]

Cc1ccc(NC2=NC(=S)N(CC#N)C23CCCCC3)cc1
AC50 [1]: 23.1 µM [rising, single point]

O=C(O)c1ccc(COc2ccc3c(c2)CCC3)cc1
AC50 [1]: 11.2 µM [falling, partial curve]

COc1cc(/C=C2/SC(=Nc3ccc(O)cc3)NC2=O)ccc1O
AC50 [1]: 0.562 µM [falling, full curve, poor fit]

CCN(CC)C(=O)CSc1nc(O)c(Cc2ccccc2)c(=O)n1-c1ccccc1C
AC50 [1]: 0.316 µM [falling, full curve]

Cn1c(CCN2CCCCC2)nc2cc(NS(=O)(=O)c3ccc(Cl)cc3)ccc21
AC50 [1]: 2.82 µM [falling, partial curve, poor fit]

COc1cc(/C=C/C(=O)OCC(=O)c2ccccc2)cc(OC)c1OC
AC50 [1]: 18.4 µM [rising, partial curve]

Cc1ccc(NC(=O)CCNS(=O)(=O)c2cccc3nsnc23)cc1
AC50 [1]: 7.31 µM [rising, partial curve, poor fit]

O=C(O)C1CC(=O)N(c2ccc(OCc3ccc(Cl)cc3Cl)cc2)C1 (stereo not drawn)
AC50 [1]: 13 µM [falling, partial curve]

CCOC(=O)Cc1csc(NC(=S)NC(=O)c2cc(OC)cc(OC)c2)n1
AC50 [1]: 14.1 µM [falling, partial curve] | AC50 [2]: 17.8 µM [falling, single point]

CCOc1ccc(/C=N/NC(=O)c2nnn(-c3nonc3N)c2-c2ccc(OCC)cc2)cc1
AC50 [1]: 0.00517 µM [rising, full curve, poor fit]

CCC1c2ccc(C)n2CCN1C(=O)Nc1cc(Cl)ccc1OC (stereo not drawn)
AC50 [1]: 8.2 µM [rising, partial curve, poor fit]

O=C(NNC(=O)C1CCCO1)c1ccccc1Cl (stereo not drawn)
AC50 [1]: 29.1 µM [rising, single point]

Cc1ccc2oc3c(c(=O)c2c1)C(c1cccc(Cl)c1)N(CCCN1CCOCC1)C3=O (stereo not drawn)
AC50 [1]: 3.66 µM [rising, single point]

CC(=O)c1cc2c(cc1NC(=O)c1cc(C)nn1-c1ccccc1)OCO2
AC50 [1]: 6.51 µM [rising, partial curve, poor fit]

Cc1onc(-c2ccccc2)c1C(=O)Oc1cccnc1
AC50 [1]: 4.61 µM [falling, single point]

Cc1nc(SCCC(=O)O)c2ccccc2n1
AC50 [1]: 29.1 µM [rising, single point]

Cc1ccccc1OCCNc1cc(N2CCCCC2)ccc1[N+](=O)[O-]
AC50 [1]: 10 µM [rising, partial curve]

CN(C)c1ccc(N=Nc2ccccc2Br)cc1
AC50 [1]: 0.1 µM [rising, full curve, poor fit]

O=C(O)c1ccc(/C=C2\CCCc3c2nc2ccccc2c3C(=O)O)cc1
AC50 [1]: 11.2 µM [falling, partial curve, poor fit]

CCOCCSC1=C(C#N)C(c2cccs2)C(C(C)=O)=C(C)N1 (stereo not drawn)
AC50 [1]: 2.91 µM [rising, single point]

Cc1ncc(CO)c(/C=N/NC(=O)c2cc(Br)ccc2O)c1O
AC50 [1]: 1.12 µM [falling, full curve, poor fit]

Nc1cc(=O)[nH]c(SCC(=O)Nc2cc([N+](=O)[O-])ccc2Cl)n1
AC50 [1]: 1.58 µM [rising, full curve, poor fit]

CCCCn1nc(NC(=O)c2cccs2)c2cc3ccccc3nc21
AC50 [1]: 11.2 µM [falling, partial curve]

Clc1cccc(OCc2nnc(-c3ccccc3Br)o2)c1
AC50 [1]: 1 µM [rising, partial curve, poor fit]

N/C(=N\OC(=O)c1cccc(Br)c1)c1ccccn1
AC50 [1]: 7.94 µM [falling, partial curve, poor fit]

COc1ccc(Nc2ncnc3sc(C)cc23)c(OC)c1
AC50 [1]: 3.55 µM [rising, full curve]

COc1ccc(NC(=O)N2CCc3ccccc32)cc1
AC50 [1]: 8.2 µM [falling, partial curve, poor fit]

O=C(Nc1ccccc1Oc1cccnc1)C1CCCN(Cc2cccc(Cl)c2)C1 (stereo not drawn)
AC50 [1]: 15.8 µM [falling, single point]

O=C(Nc1cccc(Cl)c1)c1cc(F)cc2c1OCOC2
AC50 [1]: 0.355 µM [rising, partial curve, poor fit]

CC(C)CNS(=O)(=O)c1ccc(C(=O)Nc2ccc3c(c2)OCCO3)cc1
AC50 [1]: 3.55 µM [falling, single point]

CC(C)c1ccccc1OCC(O)CN1CCN(S(=O)(=O)c2ccc([N+](=O)[O-])cc2)CC1 (stereo not drawn)
AC50 [1]: 1.78 µM [falling, partial curve, poor fit]

CCNC(=S)N/N=C(\C)c1cccc(OC)c1
AC50 [1]: 35.5 µM [falling, single point] | AC50 [2]: 17.8 µM [falling, partial curve]

CN1CCN(C(c2cccc(Br)c2)c2sc3nc(-c4ccco4)nn3c2O)CC1 (stereo not drawn)
AC50 [1]: 35.5 µM [rising, partial curve, poor fit]

O=C(NCc1ccc(F)cc1)c1cnc2sccn2c1=O
AC50 [1]: 9.2 µM [rising, partial curve, poor fit]

Cc1ccnc(NS(=O)(=O)c2ccc(N)cc2)n1
AC50 [1]: 0.631 µM [rising, full curve]

COc1ccc(C(=O)NC2CCCc3ccccc32)cc1Br (stereo not drawn)
AC50 [1]: 2.82 µM [falling, partial curve, poor fit]

CC(C)N(Cc1nc(-c2ccc(Cl)cc2)no1)C(=O)C12CC3CC(CC(C3)C1)C2
AC50 [1]: 0.0731 µM [rising, full curve, poor fit]

Cn1c(N/N=C/c2c[nH]c3ccccc23)nc2ccccc21
AC50 [1]: 7.08 µM [falling, partial curve, poor fit]

COc1cc(NC(=O)c2ccc3c(c2)OCO3)c2ncccc2c1
AC50 [1]: 1.46 µM [rising, full curve]

O=C(CSc1nnnn1C1CCCC1)Nc1cccc(NC(=O)c2ccco2)c1
AC50 [1]: 1 µM [falling, full curve]

Cc1c(OC(C)C(=O)NC2CC(C)(C)NC(C)(C)C2)ccc2c3c(c(=O)oc12)CCC3 (stereo not drawn)
AC50 [1]: 0.708 µM [falling, partial curve, poor fit]

COc1cc(C2c3c(-c4cc(Cl)c(C)cc4O)n[nH]c3C(=O)N2Cc2cccnc2)ccc1O (stereo not drawn)
AC50 [1]: 25.1 µM [falling, single point]

COc1cc(/C=N/Nc2ccc(C(=O)O)cc2)ccc1O
AC50 [1]: 0.1 µM [falling, full curve, poor fit] | AC50 [2]: 0.891 µM [rising, full curve, poor fit]

N#Cc1cnn2c(C(F)(F)F)cc(-c3ccccc3)nc12
AC50 [1]: 1.26 µM [rising, full curve, poor fit]

CCCc1[nH]nc2c1C(C1CCCCC1)C(C#N)=C(N)O2 (stereo not drawn)
AC50 [1]: 23.1 µM [falling, single point]

Nn1c(SCC(=O)NCCC2=CCCCC2)nnc1C(F)(F)F
AC50 [1]: 4.11 µM [rising, full curve, poor fit]

COc1cc(OC)c(-c2c3cc(O)c(=O)cc-3oc3cc(O)c(O)cc23)cc1OC
AC50 [1]: 16.4 µM [rising, partial curve] | AC50 [2]: 10.3 µM [rising, partial curve, poor fit]

COc1ccc(CNC(=O)C(C)n2ccc3cc(S(=O)(=O)N4CCCCCC4)ccc32)cc1 (stereo not drawn)
AC50 [1]: 25.1 µM [falling, partial curve, poor fit]

COC(=O)c1ccc(Oc2cc(C)nc(-n3nc(C)cc3C)n2)cc1
AC50 [1]: 7.08 µM [rising, full curve] | AC50 [2]: 8.91 µM [falling, partial curve]

COc1ccc2nc(-n3c(C)ccc3C)sc2c1
AC50 [1]: 29.1 µM [falling, single point]

CSCCC(N=C(NS(=O)(=O)c1ccc(C)cc1)c1ccccc1)C(=O)O (stereo not drawn)
AC50 [1]: 28.2 µM [rising, single point]

O=C(O)C1CCCCC1C(=O)NCCc1ccncc1 (stereo not drawn)
AC50 [1]: 0.116 µM [falling, full curve, poor fit]

CC1(NC(=O)Nc2cc([N+](=O)[O-])ccc2O)CCS(=O)(=O)C1 (stereo not drawn)
AC50 [1]: 20.6 µM [rising, single point]

Nc1cccc(-c2cc3ccccc3oc2=O)c1
AC50 [1]: 20 µM [falling, partial curve, poor fit]

C/C(=N\OCC(=O)Nc1ccc(OC(F)(F)F)cc1)c1ccc2c(c1)OCCO2
AC50 [1]: 6.51 µM [rising, single point]

CC(=O)c1c(C)[nH]c(C(=O)Nc2ccc(C)c(C)c2)c1C
AC50 [1]: 0.651 µM [rising, partial curve, poor fit]

N/C(Cc1ccc(Cl)cc1Cl)=N\OC(=O)c1cccs1
AC50 [1]: 11.6 µM [rising, partial curve, poor fit]

Cc1ccc(-n2nnnc2SCC(=O)Nc2ccc3c(c2)OCCO3)cc1C
AC50 [1]: 13 µM [rising, partial curve, poor fit]
